Counter-ions that a name gives are not always drawn. The list shows a part of the results. Single values are uncertain here, since repeats match poorly.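 HEK293T cells were given each compound shortly before transfection with a reporter in which red mCherry is followed by the SARS-CoV-2 frameshift element and then GFP in the −1 frame, so GFP appears only after frameshifting.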
tested on: SARS-CoV-2 -1 PRF reporter mCherry-FSE-GFP(-1); test: mCherry (red) intensity as percent of control; higher = higher upstream reporter expression; conditions: 10 µM; 24 h; HEK293T

| SMILES | mCherry [%] |
| --- | --- |
| CCCCCCCCCCCC(=O)OC[C@@H](O)[C@H]1OC[C@H](O)[C@H]1O [sorbitan laurate] | 56.3 |
| O=C(O)CC/C=C\CC[C@@H]1[C@@H](N2CCCCC2)[C@@H](O)C[C@@H]1OCc1ccc(-c2ccccc2)cc1 [vapiprost] | 90.8 |
| CC(C)C(N)C(=O)O (stereo not given) | 111 |
| CN1CC(=O)N2[C@H](c3ccc4c(c3)OCO4)c3[nH]c4ccccc4c3C[C@@H]2C1=O | 107 |
| NC(=O)C1=C(O)[C@@]2(O)C(=O)C3=C(O)c4c(O)cccc4C[C@H]3C[C@H]2CC1=O [incyclinide] | 38 |
| Cc1c(C(=O)NN2CCCCC2)nn(-c2ccc(Cl)cc2Cl)c1-c1ccc(Cl)cc1 [rimonabant] | 88.4 |
| N=C(N)NCC1COC2(CCCCC2)O1 (stereo not given) | 86.8 |
| CC(=O)O[C@]1(C(C)=O)CC[C@H]2[C@@H]3C=C(C)C4=CC(=O)CC[C@]4(C)[C@H]3CC[C@@]21C [Megestrol Acetate] | 120 |
| Oc1ccc(C2CNCCc3c2cc(O)c(O)c3Cl)cc1 (stereo not given) [fenoldopam] | 109 |
| COC(=O)N/N=C/c1c[n+]([O-])c2ccccc2[n+]1[O-] [carbadox] | 81.2 |
| C[C@@H]1C[C@H]2[C@@H]3C[C@H](F)C4=CC(=O)C=C[C@]4(C)[C@H]3[C@@H](O)C[C@]2(C)[C@H]1C(=O)CO [Fluocortolone] | 76 |
| CCC(C)C(C)C1Nc2cc(Cl)c(S(N)(=O)=O)cc2S(=O)(=O)N1 (stereo not given) [mebutizide] | 75.6 |
| NC(=O)[C@@H]1CCCN1C(=O)[C@H](Cc1c[nH]cn1)NC(=O)[C@@H]1CCC(=O)N1 | 85.3 |
| CCCCOC(=O)c1ccc(O)cc1 | 128 |
| CN1CC(=O)N=C1N | 89.7 |
| CN(C)c1cnccn1 | 118 |
| CC[C@]1(O)C[C@@H]2CN(CCc3c([nH]c4ccccc34)[C@@](C(=O)OC)(c3cc4c(cc3OC)N(C)[C@H]3[C@@](O)(C(=O)OC)[C@H](OC(C)=O)[C@]5(CC)C=CCN6CC[C@]43[C@@H]65)C2)C1 [Velban] | 92 |
| CCN(CC)C(C)CN1c2ccccc2Sc2ccccc21 (stereo not given) [profenamine] | 127 |

Quoted from the listing.
`CC(C)C(N)C(=O)O` (stereo not given) | mCherry [%]: 111
`N=C(N)NCC1COC2(CCCCC2)O1` (stereo not given) | mCherry [%]: 86.8
`CN1CC(=O)N2[C@H](c3ccc4c(c3)OCO4)c3[nH]c4ccccc4c3C[C@@H]2C1=O` | mCherry [%]: 107

Following part.

| SMILES | mCherry [%] |
| --- | --- |
| NCCNC(=O)c1ccc(Cl)cn1 [lazabemide] | 89.8 |
| O=C(O)/C=C/c1ccc(Cn2ccnc2)cc1 [ozagrel] | 117 |
| Clc1ccccc1CN1CCc2sccc2C1 | 130 |
| CO[C@H]1C[C@@H]2CC[C@@H](C)[C@@](O)(O2)C(=O)C(=O)N2CCCC[C@H]2C(=O)O[C@H]([C@H](C)C[C@@H]2CC[C@@H](OC(=O)C(C)(CO)CO)[C@H](OC)C2)CC(=O)[C@H](C)/C=C(\C)[C@@H](O)[C@@H](OC)C(=O)[C@H](C)C[C@H](C)/C=C/C=C/C=C/1C [Temsirolimus] | 86.4 |
| Nc1nc2ccc(OC(F)(F)F)cc2s1 [Riluzole·HCl] | 92.1 |
| CC1(C)C[C@@H]1C(=O)N/C(=C\CCCCSC[C@H](N)C(=O)O)C(=O)O [Cilastatin] | 103 |
| O=C([O-])[C@H](O)[C@@H](O)[C@H](O)[C@H](O)CO.O=C([O-])[C@H](O)[C@@H](O)[C@H](O)[C@H](O)CO.[Ca+2] | 112 |
| N[C@@H]1[C@H]2CN(c3nc4c(cc3F)c(=O)c(C(=O)O)cn4-c3ccc(F)cc3F)C[C@@H]12 [trovafloxacin] | 97.8 |
| NC(=O)CC(N)C(=O)O (stereo not given) | 98 |
| CS(=O)(=O)c1ccc([C@H](O)[C@@H](COC(=O)CN)NC(=O)C(Cl)Cl)cc1 [Thiamphenicol glycinate] | 50.9 |
| N#Cc1cc(NC(=O)C(=O)O)c(Cl)c(NC(=O)C(=O)O)c1 [lodoxamide] | 95.9 |
| Cc1cc(N)c2ccccc2[n+]1CCCCCCCCCC[n+]1c(C)cc(N)c2ccccc21 [dequalinium chloride] | 97.9 |
| Nc1nc2c(c(=O)[nH]1)N(C=O)C(CNc1ccc(C(=O)N[C@@H](CCC(=O)O)C(=O)O)cc1)CN2 (stereo not given in full) | 92 |
| C[C@@H](O)[C@H]1C(=O)N2C(C(=O)O)=C(S[C@@H]3CN[C@H](C(=O)N(C)C)C3)[C@H](C)[C@H]12 | 106 |
| C[C@]12CCC(=O)C=C1CC[C@@H]1[C@@H]2C(=O)C[C@@]2(C)[C@H]1CC[C@]2(O)C(=O)CO [cortisone] | 77.7 |
| [N-]=[N+]=NCC(=O)N[C@H](CO)[C@H](O)c1ccc([N+](=O)[O-])cc1 [azidamfenicol] | 104 |
| Cc1cc2c(s1)Nc1ccc(F)cc1N=C2N1CCN(C)CC1 [flumezapine] | 68.7 |

Source: the supplement of paper PMC8256030
